The list shows a part of the results.
What was measured:
Test in all cases: log2 fold change, soluble protein after heating vs DMSO (PISA); higher = thermal stabilisation; K562 cells, 10 uM, 30 min; active = over 0.2 and 3.5 SD of the protein, either way, in both replicates (recomputed)
[1] = compound: CS(=O)(=O)c1ccc(-c2cnc(N)c(C(=O)Nc3ccccc3)n2)cc1
Summary of the method: (§1)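 K562 cells (2×10^6 cells/mL) were treated with 10 μM compound for 30 min, and aliquots were heated for 3 min over 48°C-58°C. Pooled aliquots were extracted in PBS with 0.5% NP-40 at 4°C, and the supernatant after 21,000xg for 90 min was measured by TMTpro 16plex LC-MS/MS with channel sums equalised. Reported thermal stability, relative to control samples and from duplicates, is a log2 fold change.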

Chains of the proteins cited; added tags and fusions are not shown. Lines headed by an entry give the natural chain unless they say otherwise; changes in a name come on top.
UniProt Q9NV79: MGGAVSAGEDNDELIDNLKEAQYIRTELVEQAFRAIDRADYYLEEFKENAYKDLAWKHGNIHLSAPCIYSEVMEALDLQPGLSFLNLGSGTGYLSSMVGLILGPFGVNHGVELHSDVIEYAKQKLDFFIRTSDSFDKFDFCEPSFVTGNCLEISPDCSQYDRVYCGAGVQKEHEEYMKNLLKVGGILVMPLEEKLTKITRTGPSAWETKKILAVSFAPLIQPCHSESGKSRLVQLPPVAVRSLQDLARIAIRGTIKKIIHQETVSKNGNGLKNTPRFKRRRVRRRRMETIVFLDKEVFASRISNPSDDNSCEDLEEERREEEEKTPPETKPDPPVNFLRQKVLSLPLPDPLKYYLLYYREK
UniProt O75781: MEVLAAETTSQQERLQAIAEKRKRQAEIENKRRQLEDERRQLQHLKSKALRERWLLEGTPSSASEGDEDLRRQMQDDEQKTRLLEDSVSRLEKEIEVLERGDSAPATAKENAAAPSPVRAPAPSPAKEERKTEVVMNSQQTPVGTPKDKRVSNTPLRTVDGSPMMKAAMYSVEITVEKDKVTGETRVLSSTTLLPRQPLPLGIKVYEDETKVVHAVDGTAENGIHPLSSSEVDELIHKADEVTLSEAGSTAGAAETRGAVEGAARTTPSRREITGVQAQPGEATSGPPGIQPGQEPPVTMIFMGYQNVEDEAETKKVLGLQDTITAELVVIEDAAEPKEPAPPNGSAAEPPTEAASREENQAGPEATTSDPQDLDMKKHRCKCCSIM
UniProt Q8TE04: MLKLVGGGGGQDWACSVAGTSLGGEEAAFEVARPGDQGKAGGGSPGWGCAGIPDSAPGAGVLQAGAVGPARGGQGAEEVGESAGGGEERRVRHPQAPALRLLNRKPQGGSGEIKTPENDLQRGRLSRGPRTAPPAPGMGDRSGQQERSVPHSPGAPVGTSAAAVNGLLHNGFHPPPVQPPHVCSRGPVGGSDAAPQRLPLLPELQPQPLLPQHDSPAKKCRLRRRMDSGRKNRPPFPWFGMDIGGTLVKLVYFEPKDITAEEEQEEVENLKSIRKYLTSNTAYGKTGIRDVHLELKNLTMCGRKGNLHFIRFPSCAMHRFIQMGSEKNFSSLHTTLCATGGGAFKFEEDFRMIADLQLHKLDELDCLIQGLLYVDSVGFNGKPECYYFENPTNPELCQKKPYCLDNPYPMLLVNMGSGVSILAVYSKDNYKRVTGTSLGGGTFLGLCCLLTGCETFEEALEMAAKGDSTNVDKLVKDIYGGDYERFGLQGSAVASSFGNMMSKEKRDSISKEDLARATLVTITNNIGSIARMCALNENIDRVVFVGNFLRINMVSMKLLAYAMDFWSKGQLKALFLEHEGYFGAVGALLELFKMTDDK
UniProt Q9Y5B6: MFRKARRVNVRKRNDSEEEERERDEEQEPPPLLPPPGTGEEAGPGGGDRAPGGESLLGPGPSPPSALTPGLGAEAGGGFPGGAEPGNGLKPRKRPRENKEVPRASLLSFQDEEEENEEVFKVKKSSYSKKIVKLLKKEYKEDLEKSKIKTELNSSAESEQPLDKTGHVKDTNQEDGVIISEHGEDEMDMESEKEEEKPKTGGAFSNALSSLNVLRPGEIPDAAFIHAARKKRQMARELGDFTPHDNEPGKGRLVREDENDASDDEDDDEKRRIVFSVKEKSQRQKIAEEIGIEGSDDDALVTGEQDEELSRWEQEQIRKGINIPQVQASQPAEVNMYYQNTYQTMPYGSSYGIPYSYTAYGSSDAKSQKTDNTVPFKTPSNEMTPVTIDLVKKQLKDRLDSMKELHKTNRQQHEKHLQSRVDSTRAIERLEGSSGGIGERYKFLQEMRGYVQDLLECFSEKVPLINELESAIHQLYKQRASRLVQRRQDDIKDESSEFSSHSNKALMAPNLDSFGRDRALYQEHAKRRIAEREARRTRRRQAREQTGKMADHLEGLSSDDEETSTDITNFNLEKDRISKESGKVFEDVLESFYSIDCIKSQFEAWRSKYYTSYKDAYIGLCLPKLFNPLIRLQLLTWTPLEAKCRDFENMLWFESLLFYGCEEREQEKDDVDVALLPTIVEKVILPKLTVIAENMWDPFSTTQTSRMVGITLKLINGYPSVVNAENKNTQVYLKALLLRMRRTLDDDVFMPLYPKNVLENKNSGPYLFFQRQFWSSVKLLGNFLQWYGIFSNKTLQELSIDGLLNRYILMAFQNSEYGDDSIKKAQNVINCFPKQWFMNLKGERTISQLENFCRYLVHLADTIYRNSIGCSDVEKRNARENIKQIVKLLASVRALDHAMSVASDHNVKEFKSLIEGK
UniProt Q13370: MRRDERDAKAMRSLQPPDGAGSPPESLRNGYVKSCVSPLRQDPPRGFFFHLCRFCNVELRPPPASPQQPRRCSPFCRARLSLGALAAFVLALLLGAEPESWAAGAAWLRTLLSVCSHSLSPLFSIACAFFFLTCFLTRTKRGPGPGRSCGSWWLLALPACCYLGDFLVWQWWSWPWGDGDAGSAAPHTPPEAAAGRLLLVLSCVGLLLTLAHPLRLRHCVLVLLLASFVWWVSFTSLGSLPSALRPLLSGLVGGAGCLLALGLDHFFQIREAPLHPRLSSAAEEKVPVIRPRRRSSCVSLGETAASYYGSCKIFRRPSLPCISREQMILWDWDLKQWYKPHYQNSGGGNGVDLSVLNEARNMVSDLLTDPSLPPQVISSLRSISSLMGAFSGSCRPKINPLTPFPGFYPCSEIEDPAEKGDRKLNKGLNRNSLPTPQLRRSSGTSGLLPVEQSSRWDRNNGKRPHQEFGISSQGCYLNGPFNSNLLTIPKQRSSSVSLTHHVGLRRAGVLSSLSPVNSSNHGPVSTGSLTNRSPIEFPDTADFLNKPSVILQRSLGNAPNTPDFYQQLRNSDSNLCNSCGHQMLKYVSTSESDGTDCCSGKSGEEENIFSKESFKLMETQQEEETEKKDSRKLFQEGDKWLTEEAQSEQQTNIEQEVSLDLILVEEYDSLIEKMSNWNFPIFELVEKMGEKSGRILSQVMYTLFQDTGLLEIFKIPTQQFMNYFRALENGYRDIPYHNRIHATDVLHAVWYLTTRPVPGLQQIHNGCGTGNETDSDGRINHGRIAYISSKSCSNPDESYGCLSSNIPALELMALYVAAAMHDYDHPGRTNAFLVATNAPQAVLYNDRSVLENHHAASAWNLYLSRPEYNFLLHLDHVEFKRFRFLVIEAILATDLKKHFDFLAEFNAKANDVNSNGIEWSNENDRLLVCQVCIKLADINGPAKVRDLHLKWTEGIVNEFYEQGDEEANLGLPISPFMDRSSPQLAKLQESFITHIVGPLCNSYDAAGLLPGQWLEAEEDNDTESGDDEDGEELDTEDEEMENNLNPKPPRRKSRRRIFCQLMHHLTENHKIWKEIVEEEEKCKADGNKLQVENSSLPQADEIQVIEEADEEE
UniProt Q8TEW0: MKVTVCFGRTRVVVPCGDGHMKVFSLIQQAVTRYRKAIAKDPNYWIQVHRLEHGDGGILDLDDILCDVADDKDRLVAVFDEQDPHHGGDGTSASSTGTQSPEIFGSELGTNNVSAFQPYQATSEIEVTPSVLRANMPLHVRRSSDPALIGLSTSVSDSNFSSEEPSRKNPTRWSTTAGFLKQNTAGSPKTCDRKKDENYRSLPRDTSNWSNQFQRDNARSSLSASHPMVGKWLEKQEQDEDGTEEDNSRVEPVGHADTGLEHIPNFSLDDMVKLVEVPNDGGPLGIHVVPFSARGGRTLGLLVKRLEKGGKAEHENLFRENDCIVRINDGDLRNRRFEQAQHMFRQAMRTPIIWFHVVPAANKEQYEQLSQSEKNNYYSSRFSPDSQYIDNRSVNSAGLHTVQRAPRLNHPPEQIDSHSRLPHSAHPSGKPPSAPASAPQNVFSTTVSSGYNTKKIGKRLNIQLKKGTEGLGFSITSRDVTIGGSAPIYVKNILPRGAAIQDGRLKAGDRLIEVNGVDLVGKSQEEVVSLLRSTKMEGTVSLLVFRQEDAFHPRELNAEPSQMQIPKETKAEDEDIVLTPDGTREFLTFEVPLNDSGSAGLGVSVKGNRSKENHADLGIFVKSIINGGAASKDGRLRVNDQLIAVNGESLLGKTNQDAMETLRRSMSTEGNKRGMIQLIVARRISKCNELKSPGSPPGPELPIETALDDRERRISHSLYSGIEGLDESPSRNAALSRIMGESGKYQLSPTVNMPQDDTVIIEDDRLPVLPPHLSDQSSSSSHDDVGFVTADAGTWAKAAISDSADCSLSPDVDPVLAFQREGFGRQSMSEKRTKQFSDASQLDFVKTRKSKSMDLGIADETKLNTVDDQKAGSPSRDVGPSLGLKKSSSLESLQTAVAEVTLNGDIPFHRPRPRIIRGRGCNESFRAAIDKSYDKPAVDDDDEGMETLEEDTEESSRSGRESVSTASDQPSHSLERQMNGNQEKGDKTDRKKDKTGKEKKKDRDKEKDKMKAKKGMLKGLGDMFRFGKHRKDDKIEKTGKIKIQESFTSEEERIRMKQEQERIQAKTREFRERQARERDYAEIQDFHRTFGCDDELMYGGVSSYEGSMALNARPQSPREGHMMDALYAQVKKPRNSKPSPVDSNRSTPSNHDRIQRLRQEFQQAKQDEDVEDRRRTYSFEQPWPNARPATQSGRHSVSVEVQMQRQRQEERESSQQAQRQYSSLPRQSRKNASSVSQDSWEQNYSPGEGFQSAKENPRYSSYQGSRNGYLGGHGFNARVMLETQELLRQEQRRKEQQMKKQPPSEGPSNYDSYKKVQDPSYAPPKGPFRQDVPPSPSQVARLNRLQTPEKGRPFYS
UniProt Q9UBM1: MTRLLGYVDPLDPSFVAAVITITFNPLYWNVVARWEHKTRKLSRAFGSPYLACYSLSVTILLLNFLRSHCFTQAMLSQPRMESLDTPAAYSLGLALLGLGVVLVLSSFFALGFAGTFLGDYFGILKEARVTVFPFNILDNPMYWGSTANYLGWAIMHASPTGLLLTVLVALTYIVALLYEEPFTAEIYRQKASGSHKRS
UniProt Q86U42: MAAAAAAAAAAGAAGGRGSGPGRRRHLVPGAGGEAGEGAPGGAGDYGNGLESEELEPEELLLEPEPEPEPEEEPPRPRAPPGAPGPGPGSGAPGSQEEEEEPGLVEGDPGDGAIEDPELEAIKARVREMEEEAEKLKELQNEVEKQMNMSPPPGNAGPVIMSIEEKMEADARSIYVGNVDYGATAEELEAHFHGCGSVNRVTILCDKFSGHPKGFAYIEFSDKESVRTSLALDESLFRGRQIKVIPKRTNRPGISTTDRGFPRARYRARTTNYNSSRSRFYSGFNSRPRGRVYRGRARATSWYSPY
UniProt Q58A45: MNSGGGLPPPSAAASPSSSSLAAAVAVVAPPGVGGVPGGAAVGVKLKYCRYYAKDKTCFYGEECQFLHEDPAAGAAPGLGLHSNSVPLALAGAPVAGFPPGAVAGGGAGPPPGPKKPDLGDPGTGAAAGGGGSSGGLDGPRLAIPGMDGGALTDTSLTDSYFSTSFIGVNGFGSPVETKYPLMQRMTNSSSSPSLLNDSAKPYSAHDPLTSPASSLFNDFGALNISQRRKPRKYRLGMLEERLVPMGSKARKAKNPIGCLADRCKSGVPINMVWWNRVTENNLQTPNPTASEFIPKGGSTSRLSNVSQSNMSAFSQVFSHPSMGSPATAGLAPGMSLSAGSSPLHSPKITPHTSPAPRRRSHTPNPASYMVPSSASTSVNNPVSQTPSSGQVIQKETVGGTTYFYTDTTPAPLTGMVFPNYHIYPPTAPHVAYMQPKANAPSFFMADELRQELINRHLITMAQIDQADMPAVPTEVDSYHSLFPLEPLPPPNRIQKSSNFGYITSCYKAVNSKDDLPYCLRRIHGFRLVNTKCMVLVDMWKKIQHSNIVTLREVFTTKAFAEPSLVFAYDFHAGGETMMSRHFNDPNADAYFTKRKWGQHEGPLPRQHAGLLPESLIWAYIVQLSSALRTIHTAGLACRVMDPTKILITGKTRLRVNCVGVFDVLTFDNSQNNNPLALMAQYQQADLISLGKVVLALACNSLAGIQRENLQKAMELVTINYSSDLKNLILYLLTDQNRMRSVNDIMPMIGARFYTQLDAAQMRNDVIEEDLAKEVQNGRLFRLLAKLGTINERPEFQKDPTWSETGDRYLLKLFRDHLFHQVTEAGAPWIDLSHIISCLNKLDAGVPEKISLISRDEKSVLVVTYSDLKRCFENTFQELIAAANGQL
UniProt Q9H999: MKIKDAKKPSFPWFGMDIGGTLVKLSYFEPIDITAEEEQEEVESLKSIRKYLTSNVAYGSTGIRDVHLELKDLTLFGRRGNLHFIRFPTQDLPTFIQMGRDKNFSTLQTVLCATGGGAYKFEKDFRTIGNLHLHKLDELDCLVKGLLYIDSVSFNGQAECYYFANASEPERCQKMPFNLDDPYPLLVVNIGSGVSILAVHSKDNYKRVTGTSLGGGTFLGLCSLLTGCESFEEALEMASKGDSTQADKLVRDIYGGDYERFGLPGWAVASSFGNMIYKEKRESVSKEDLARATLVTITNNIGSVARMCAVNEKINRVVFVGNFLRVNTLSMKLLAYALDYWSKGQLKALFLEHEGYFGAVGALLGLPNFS
UniProt O60829: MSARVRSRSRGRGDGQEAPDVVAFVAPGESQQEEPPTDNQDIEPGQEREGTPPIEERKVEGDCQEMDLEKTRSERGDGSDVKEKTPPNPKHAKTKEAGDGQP

duvelisib = compound: C[C@H](Nc1ncnc2nc[nH]c12)c1cc2cccc(Cl)c2c(=O)n1-c1ccccc1 [duvelisib]
Summary of the method: as §1

gandotinib = compound: Cc1cc(Nc2cc(CN3CCOCC3)c3nc(C)c(Cc4ccc(Cl)cc4F)n3n2)n[nH]1 [gandotinib]
Summary of the method: as §1

[2] = compound: Cc1cc(SCc2sc(-c3ccc(C(F)(F)F)cc3)nc2C)ccc1OCC(=O)O
Summary of the method: as §1

[3] = compound: Cc1cccc(CC(=O)N2CCc3c2ccc(-c2cn(C)c4ncnc(N)c24)c3F)n1
Summary of the method: as §1

dasatinib = compound: Cc1nc(Nc2ncc(C(=O)Nc3c(C)cccc3Cl)s2)cc(N2CCN(CCO)CC2)n1 [dasatinib]
Summary of the method: as §1

mubritinib = compound: FC(F)(F)c1ccc(/C=C/c2nc(COc3ccc(CCCCn4ccnn4)cc3)co2)cc1 [mubritinib]
Summary of the method: as §1

crizotinib = compound: C[C@@H](Oc1cc(-c2cnn(C3CCNCC3)c2)cnc1N)c1c(Cl)ccc(F)c1Cl [crizotinib]
Summary of the method: as §1

tozasertib = compound: Cc1cc(Nc2cc(N3CCN(C)CC3)nc(Sc3ccc(NC(=O)C4CC4)cc3)n2)n[nH]1 [tozasertib]
Summary of the method: as §1

doramapimod = compound: Cc1ccc(-n2nc(C(C)(C)C)cc2NC(=O)Nc2ccc(OCCN3CCOCC3)c3ccccc23)cc1 [doramapimod]
Summary of the method: as §1

ispinesib = compound: Cc1ccc(C(=O)N(CCCN)[C@@H](c2nc3cc(Cl)ccc3c(=O)n2Cc2ccccc2)C(C)C)cc1 [ispinesib]
Summary of the method: as §1

[4] = compound: Cn1cc(-c2ccc3nnc(C(F)(F)c4ccc5ncccc5c4)n3n2)cn1
Summary of the method: as §1

tipifarnib = compound: Cn1cncc1[C@@](N)(c1ccc(Cl)cc1)c1ccc2c(c1)c(-c1cccc(Cl)c1)cc(=O)n2C [tipifarnib]
Summary of the method: as §1

nilotinib = compound: Cc1cn(-c2cc(NC(=O)c3ccc(C)c(Nc4nccc(-c5cccnc5)n4)c3)cc(C(F)(F)F)c2)cn1 [nilotinib]
Summary of the method: as §1

[5] = compound: Cc1nc(Nc2n[nH]c3c2CN(C(=O)N[C@H](CN(C)C)c2ccccc2)C3(C)C)c2sccc2n1
Summary of the method: as §1

[6] = compound: Cc1ncc(-c2ccnc(Nc3ccc(S(C)(=O)=O)cc3)n2)n1C(C)C
Summary of the method: as §1

[7] = compound: C[C@H](C1=CC=C(C=C1)C(=O)NC2=C3C=CNC3=NC=C2)N
Summary of the method: as §1

bafetinib = compound: Cc1ccc(NC(=O)c2ccc(CN3CC[C@H](N(C)C)C3)c(C(F)(F)F)c2)cc1Nc1nccc(-c2cncnc2)n1 [bafetinib]
Summary of the method: as §1

[8] = compound: Cn1cc(-c2ccc3c(c2)CCN3C(=O)Cc2cccc(C(F)(F)F)c2)c2c(N)ncnc21
Summary of the method: as §1

[9] = compound: C[C@@H]1COCCN1C2=NC(=NC(=C2)C3(CC3)S(=O)(=O)C)C4=C5C=CNC5=CC=C4
Summary of the method: as §1

Measured: log2 fold change

PCM1 isoform 2 (UniProt Q15154)
inactive: [1] 0.063 | duvelisib 0.003 | gandotinib -0.275 | [2] -0.077 | [3] 0.209 | dasatinib 0.07 | mubritinib -0.163

PDIA4, A0A499FI48
inactive: crizotinib 0.177 | duvelisib -0.054 | gandotinib -0.021 | tozasertib 0.038 | [2] 0 | doramapimod 0.065 | ispinesib -0.077 | [3] -0.141 | dasatinib -0.203 | [4] -0.088 | tipifarnib 0.188 | mubritinib -0.043

PCMTD2 (UniProt Q9NV79)
inactive: tozasertib 0.005 | ispinesib -0.162 | nilotinib -0.012 | [5] 0.119 | [6] 0.25 | [4] 0.08 | mubritinib 0.031

PALM (UniProt O75781)
inactive: crizotinib 0.158 | doramapimod 0.19 | mubritinib 0.04

PAFAH1B1 (UniProt I3L3N5)
inactive: crizotinib 0.121 | [7] 0.195 | duvelisib 0.175 | [2] -0.129 | doramapimod 0.032 | bafetinib -0.04 | dasatinib 0.167 | [8] -0.215 | tipifarnib 0.065 | mubritinib 0.061

PDE4DIP (UniProt E9PS60)
inactive: crizotinib -0.225 | [7] 0.212 | doramapimod 0.102 | [8] -0.007

PANK1 (UniProt Q8TE04)
inactive: [1] 0.016 | [9] 0.074 | [7] 0.008 | duvelisib 0.222 | gandotinib -0.1 | tozasertib -0.046 | [2] -0.123 | ispinesib -0.116 | bafetinib -0.095 | [3] -0.054 | nilotinib 0 | [5] -0.094 | dasatinib 0.062 | [6] -0.009 | [8] 0.13 | [4] 0.13 | tipifarnib 0.031 | mubritinib -0.128

PAXBP1 (UniProt Q9Y5B6)
inactive: crizotinib -0.474 | gandotinib 0.072 | tozasertib 0.123 | doramapimod 0.043 | ispinesib -0.092 | bafetinib 0.054 | [3] -0.064 | [4] 0.102

PCBP2 (UniProt F8VZX2)
inactive: crizotinib -0.273 | [7] 0.234 | [2] 0.065 | doramapimod -0.107 | ispinesib -0.124 | bafetinib 0.029 | nilotinib 0.029 | [5] -0.112 | dasatinib -0.144 | [6] 0.049 | [8] -0.022 | [4] -0.196 | mubritinib -0.153

PDE3B (UniProt Q13370)
inactive: crizotinib -0.173 | [9] -0.395 | doramapimod 0.147 | mubritinib -0.338

PARD3 (UniProt Q8TEW0)
inactive: gandotinib 0.092 | [3] -0.227 | tipifarnib -0.002

PCF11 (UniProt O94913)
inactive: crizotinib -0.137 | [7] 0.211 | gandotinib -0.149 | doramapimod 0.051 | ispinesib -0.533 | bafetinib -0.099 | [3] 0.078 | [8] -0.095 | [4] 0.007 | tipifarnib 0.168 | mubritinib 0.179

PARP4 (UniProt Q9UKK3)
inactive: [1] -0.225 | duvelisib -0.086 | [2] 0.049 | dasatinib 0.013

PAF1 (UniProt Q8N7H5)
inactive: [9] -0.049 | [7] 0.228 | duvelisib -0.04 | gandotinib 0.062 | [2] 0.191 | ispinesib -0.06 | [3] -0.1 | dasatinib -0.04 | [8] 0.208 | [4] -0.025 | mubritinib -0.061

PCMTD1 (UniProt Q96MG8)
inactive: crizotinib -0.302 | [9] 0.193 | duvelisib 0.395 | [2] 0.045 | doramapimod -0.054 | ispinesib -0.062 | bafetinib -0.286 | nilotinib -0.023 | [5] 0.147 | dasatinib -0.174 | [6] 0.093 | [4] -0.245

PEMT isoform 2 (UniProt Q9UBM1)
inactive: tozasertib 0.077

PCDH1 isoform 2 (UniProt Q08174)
inactive: [1] 0.02 | tozasertib -0.111

PCSK7 (UniProt Q16549)
inactive: tipifarnib -0.056

Reprinted from the results shown (two entries):
PDIA4, A0A499FI48
inactive: crizotinib 0.177 | duvelisib -0.054 | gandotinib -0.021 | tozasertib 0.038 | [2] 0 | doramapimod 0.065 | ispinesib -0.077 | [3] -0.141 | dasatinib -0.203 | [4] -0.088 | tipifarnib 0.188 | mubritinib -0.043

PCMTD2 (UniProt Q9NV79)
inactive: tozasertib 0.005 | ispinesib -0.162 | nilotinib -0.012 | [5] 0.119 | [6] 0.25 | [4] 0.08 | mubritinib 0.031

Following part.

PDE4A (UniProt P27815)
inactive: crizotinib 0.055 | [9] -0.102 | [7] -0.171 | doramapimod 0.065 | ispinesib -0.098 | bafetinib -0.157 | [8] -0.016 | [4] 0.021 | tipifarnib -0.108

PABPN1 (UniProt Q86U42)
inactive: [7] 0.244 | duvelisib 0.226 | gandotinib -0.262 | [2] -0.054 | bafetinib -0.064 | [3] -0.305 | dasatinib -0.031 | [8] -0.334 | mubritinib -0.266

PAN3 (UniProt Q58A45)
inactive: gandotinib 0.11 | ispinesib -0.353 | [3] 0.015 | [4] -0.024

PCNX1 (UniProt Q96RV3)
inactive: [9] 0.257 | bafetinib -0.112 | nilotinib 0.007 | [5] 0.009 | [6] 0 | tipifarnib 0.305 | mubritinib -0.019

PAICS (UniProt D6RF62)
inactive: duvelisib 0.079 | gandotinib -0.008 | [2] -0.137 | ispinesib -0.208 | [3] 0.396 | dasatinib 0.217 | [4] -0.084 | tipifarnib 0.207

PAN2 (UniProt Q504Q3)
inactive: [2] 0.299 | bafetinib -0.052 | nilotinib -0.123 | [5] -0.02 | dasatinib 0.013 | [6] -0.09

PEX10 isoform 2 (UniProt O60683)
inactive: [1] -0.032 | [7] 0.002 | duvelisib 0.032 | gandotinib -0.053 | tozasertib 0.012 | [2] 0.055 | [3] 0.035 | dasatinib 0.112 | [8] -0.001 | tipifarnib -0.063 | mubritinib 0.237

PANK3 (UniProt Q9H999)
inactive: [1] 0.184 | [9] -0.032 | [7] -0.072 | duvelisib 0.049 | gandotinib 0.033 | tozasertib -0.131 | [2] 0.185 | ispinesib -0.015 | bafetinib -0.06 | [3] -0.04 | nilotinib -0.018 | [5] 0.146 | dasatinib 0.067 | [6] -0.103 | [8] 0.204 | [4] 0.055 | tipifarnib -0.003

PCYT2 (UniProt I3L1F9)
inactive: tipifarnib 0.067

PAGE4 (UniProt O60829)
inactive: [1] -0.174 | [9] 0.112 | [7] 0.189 | gandotinib -0.113 | tozasertib 0.052 | ispinesib -0.23 | bafetinib -0.488 | [3] -0.289 | nilotinib -0.06 | [5] 0.005 | [6] -0.094 | [8] -0.095 | [4] -0.166 | mubritinib 0.071
